Assay results taken from PubChem BioAssay AID2685 (National Center for Advancing Translational Sciences (NCATS), 2010).
Some of the results follow. Further columns of the screen follow, without active or inactive calls. Most of these compounds were active or inconclusive in the main read-out, so they are no random draw. Potencies come from curve fits of mixed quality, noted in brackets.

Assay: qHTS Assay for Lipid Storage Modulators in Drosophila S3 Cells;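 as to cell number change: cells counted by Cell Tracker Red CMTPX staining in the red channel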
Conditions: BODIPY lipid droplet fluorescence, 18-24 h; for cell number change: measured here: cell count max response, cells fed with added oleic acid
How it was run: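 Laser-scanning cytometry quantifies lipid droplet accumulation (500–530 nm total intensity; droplet/cell object ratio) in oleic acid-fed (400 uM added) Drosophila S3 cells treated with a concentration series. 20 uM Triacsin C defined 100% inhibition.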

[1] = measured here: cell number channel AC50, cells fed with added oleic acid
[2] = measured here: lipid fluorescence (Fed channel) AC50, cells fed with added oleic acid

Structure (SMILES) | cell number change [%] | AC50 [1] | AC50 [2]
COc1ccc(-n2c(COc3cccc4ccccc34)nnc2SCC(=O)NCc2ccco2)cc1 | -20.3 | 1.84 µM [rising, partial curve] | 4.11 µM [rising, partial curve]
O=C(CSc1nnc(-c2ccncc2)n1-c1ccc(Cl)cc1)N1CCOCC1 | 17.3 |  | 13 µM [rising, partial curve]
COC(=O)Nc1nnc(/C=C/c2ccc(OC)cc2)s1 | -2.71 |  | 
COC(=O)Cc1[nH]nc2c1C(c1c[nH]c3ccccc13)C(C#N)=C(N)O2 (stereo not drawn) | -26.6 |  | 23.1 µM [falling, single point]
COc1cccc(NC(=O)C(=O)NCc2ccncc2)c1 | -40.6 | 2.06 µM [falling, single point] | 29.1 µM [falling, single point]
Oc1c(Cl)cc(Cl)cc1/C=N/c1ncn[nH]1 | -16.7 |  | 29.1 µM [rising, single point]
CC(=O)c1ccc(NC(=O)CN(c2c(C)cccc2C)S(C)(=O)=O)cc1 | -20.9 |  | 
CC(C)n1c(N2CCN(C(=O)Nc3ccccc3)CC2)nc2ccccc21 | -8.21 |  | 29.1 µM [falling, single point]
COc1ccc(C(=O)N2CCCC(C(=O)c3ccccc3OC)C2)cc1OC (stereo not drawn) |  | 0.461 µM [falling, single point] | 
COC(=O)c1nnc(-c2ccccc2)nc1OC |  | 5.17 µM [rising, single point] | 
Cc1ccc(S(=O)(=O)N2CCCCC2)cc1NC(=O)COC(=O)Cc1cccc2ccccc12 | -6.03 |  | 2.06 µM [falling, partial curve]
COc1ccc2cc3cc(C(=O)NC(C)C)oc3nc2c1 |  |  | 2.59 µM [rising, partial curve]
COC(=O)c1ccc(-n2nnnc2SCC(=O)Nc2ccccc2OC)cc1 | 6.23 |  | 6.51 µM [rising, single point]
Cc1c(Cl)cccc1NC(=S)NCc1ccc2c(c1)OCO2 | 38.2 | 18.4 µM [rising, single point] | 
CCN(CC)S(=O)(=O)c1ccc(C(=O)NCc2nnc(SCC(=O)OC)n2C)cc1 | -43.6 | 0.0206 µM [falling, full curve] | 3.26 µM [falling, partial curve, poor fit]
O=C(O)c1cc([N+](=O)[O-])c(NCc2cccnc2)c([N+](=O)[O-])c1 | -10.7 |  | 
CCc1ccc(C(=O)COC(=O)c2cnc(C)cn2)cc1 |  |  | 6.51 µM [falling, single point]
CCOc1cc(S(=O)(=O)Nc2ccccn2)ccc1F | 3.59 |  | 
Cc1ccc(OC(=O)c2cncc(Br)c2)c(C)c1 | 4.11 |  | 
O=C(CCl)Nc1ccc(N2CCCCCC2)cc1 | -33 | 20.6 µM [falling, single point] | 13 µM [falling, partial curve, poor fit]
CCCn1c(CCNC(=O)c2ccco2)nc2ccccc21 | 17 | 7.31 µM [rising, partial curve] | 

Structure (SMILES) | cell number change [%] | AC50 [1] | AC50 [2]
Cc1cc2nc(CO)[nH]c2cc1C | 19.5 |  | 8.2 µM [rising, single point]
CCN(C(=O)COC(=O)c1ccc(Br)o1)C1CCCCC1 | 37 | 2.31 µM [rising, full curve] | 29.1 µM [rising, single point]
CC1(C)C(=O)CC[C@]2(C)C3C(=O)C=C4[C@H]5C[C@@](C)(C(=O)O)CC[C@]5(C)CC[C@]4(C)[C@]3(C)CC[C@@H]12 (stereo partly drawn) |  |  | 2.91 µM [falling, full curve]
CC(=O)Nc1ccc(C(=O)Nc2cc(C)on2)cc1 | -0.173 |  | 1.16 µM [rising, full curve, poor fit]
Cc1ccc(S(=O)(=O)N(CCC(=O)O)c2ccccc2)cc1 | -10.1 |  | 2.59 µM [falling, partial curve]
COc1cccc(C2CC(c3ccc(C)cc3)=NN2C(=O)c2ccccc2F)c1OC (stereo not drawn) | 61.3 | 29.1 µM [rising, single point] | 29.1 µM [rising, partial curve]
CCCCCC(=O)N/N=C(\C)c1ccc(N2CCCCC2)cc1 | -33.4 | 29.1 µM [falling, single point] | 32.6 µM [falling, single point]
Cc1ccc(C)c(NC(=O)c2ccccc2NS(=O)(=O)c2cc([N+](=O)[O-])ccc2C)c1 | -16.1 | 0.731 µM [falling, partial curve, poor fit] | 11.6 µM [falling, partial curve]
Cc1cc(C)nc(SC2CC(=O)N(c3ccc(Cl)cc3)C2=O)n1 (stereo not drawn) | 19.3 | 0.461 µM [rising, partial curve, poor fit] | 
CC(=O)N(c1ccc(Cl)cc1)c1nc(C)cc(C)c1C#N | 17.4 |  | 0.082 µM [rising, partial curve, poor fit]
O=C(Nc1nc(-c2ccc(F)cc2)cs1)C1CCCO1 (stereo not drawn) | 44.3 | 6.51 µM [rising, single point] | 18.4 µM [rising, partial curve, poor fit]
CCCN1CCN(S(=O)(=O)c2ccc3c(c2)NC(=O)C(C)S3)CC1 (stereo not drawn) | 31 | 20.6 µM [rising, single point] | 
Cc1cc(NC(=O)c2ccc(F)c(S(=O)(=O)N3CCCCC3)c2)no1 | 5.52 |  | 29.1 µM [rising, single point]
CC(Cc1ccccc1)NC(=S)CN1CCCC1=S (stereo not drawn) | 0.107 |  | 
Nc1c(C(=O)N/N=C/c2cccnc2)cnn1-c1ccccc1 | 13.8 |  | 0.206 µM [rising, full curve, poor fit]
CC(=NC1CCCC1)c1c(C)[nH]n(-c2nc3ccccc3s2)c1=O |  |  | 29.1 µM [rising, single point]
c1ccc(CC2CCN(C3=Nc4cccc5cccc3c45)CC2)cc1 | 49.9 | 9.2 µM [rising, partial curve] | 13 µM [rising, partial curve]
COc1cc(CNc2ccc(O)cc2)cc(Br)c1OCc1ccccc1 | -53.2 | 20.6 µM [falling, partial curve, poor fit] | 29.1 µM [falling, single point]
Cc1ccc(NC(=O)C2CCC(=O)N2C(=O)OCc2ccccc2)cc1 (stereo not drawn) | -16.7 |  | 0.116 µM [rising, single point]
Cc1cc(C)cc(OCC(=O)O/N=C(\N)c2ccccc2Cl)c1 | 42.4 | 25.9 µM [rising, single point] | 8.2 µM [rising, partial curve, poor fit]
Cc1ccc(N2CCN(C(=O)c3cc(C(=O)c4ccccc4C)c[nH]3)CC2)c(C)c1 | -26.7 |  | 29.1 µM [falling, single point]

Structure (SMILES) | cell number change [%] | AC50 [1] | AC50 [2]
Cc1cc2nncn2c(Cc2ccccc2)n1 | -12.9 |  | 
COc1ccccc1CCNC(=O)c1cnn2c(C(F)F)cc(C)nc12 | 9.85 |  | 
COCCNC(C(=O)Nc1cc(Cl)cc(Cl)c1)c1ccccc1 (stereo not drawn) | 45.2 | 29.1 µM [rising, single point] | 
COc1ccc(C(=O)OCC(=O)NC(C)CCc2ccccc2)c(OC)c1 (stereo not drawn) | -19.4 |  | 16.4 µM [falling, partial curve]
CC(C)(C)N1CC(C(=O)Nc2ccc(S(=O)(=O)N3CCCCC3)cc2)CC1=O (stereo not drawn) | 29.7 |  | 
COc1ccc(C(=O)Nc2nc(C)c3cc4c(cc3n2)OCO4)cc1 | 20.7 |  | 1.84 µM [rising, full curve, poor fit]
CCc1ccc2c(CC(=O)Nc3nnc(C4CC4)s3)coc2c1 | 29 |  | 
CC(=O)Nc1ccc(Nc2ncnc3c2cnn3-c2cccc(C)c2)cc1 |  |  | 2.59 µM [rising, single point]
Cc1ccc(C)c(S(=O)(=O)NCc2ccc3c(c2)OCO3)c1 | -9.79 |  | 3.66 µM [rising, single point]
COc1cc(/C=N/n2cnn(Cc3ccccc3Cl)c2=S)cc(OC)c1OC | 22 |  | 
COc1nccnc1NS(=O)(=O)c1ccc(NC(=S)NC(=O)/C=C/c2ccc(F)cc2)cc1 | 1.04 | 6.51 µM [falling, single point] | 
Cc1cccc(C(=O)N/N=C/c2ccc(OC3CSC3)cc2)c1 | 18.2 |  | 8.2 µM [rising, partial curve]
CC1(C)CC2CC(C)(CN2C(=S)Nc2ccccc2)C1 (stereo not drawn) | 11.9 | 0.164 µM [falling, partial curve, poor fit] | 
CCCN1C(=O)C(=O)N(CC(=O)c2cc(C)n(C3CC3)c2C)C1=O | 34.8 | 32.6 µM [rising, partial curve, poor fit] | 
Cc1nc2ccccc2c(=O)n1NC(=O)C1CC1 | 12.3 |  | 6.31 µM [falling, single point]
COC(=O)c1c(NC(=O)C2CCC2)sc(C(=O)N(C)C)c1C | 88 | 3.66 µM [rising, full curve] | 6.51 µM [rising, single point]
COc1ccc(C(O)(CCC(C)C)C(CN2CCOCC2)c2ccccc2)cc1 (stereo not drawn) | -46.1 | 29.1 µM [falling, single point] | 2.31 µM [falling, partial curve]
CC1CN(C(=O)Nc2cccc(Cl)c2)C2(CCCCCC2)O1 (stereo not drawn) | 33.9 | 29.1 µM [rising, single point] | 
CC(=O)N1CCN(C(=O)CCc2nc3ccccc3c(=O)[nH]2)CC1 | 15.7 |  | 0.103 µM [falling, full curve, poor fit]
